# System: rat optic nerve derived OPCs
# Assay: High content imaging assay of OPC differentiation (MBP immunostaining, OPERA)
# Type: cell-based
# Conditions: 144 h, 6 days, basal differentiation conditions, MBP expression, read-out: EC50 for induction of OPC differentiation
# Experimental: FIG. 1A-C. […] The calculated EC50 values were determined using appropriate Graphpad Prism 5.0 curve fitting software. […] OPCs were plated in 384 well plates at 1000 cells per well in OPC media containing basal PDGF-αα (2 ng/mL) and treated with serial dilutions of compounds. Following six days of compound treatment, cells were fixed and subjected to immunofluorescence analysis using anti-myelin basic protein (MBP) antibody. Image acquisition and quantification of MBP staining was performed using the OPERA imaging system.
# FIG. 11A-B. Screen to identify inducers of OPC differentiation. (A) OPCs were maintained as proliferating A2B5-positive cells under basal growth conditions (Neurobasal medium, B27 supplement without Vitamin A, non-essential amino acids, L-Glutamine, 30 ng/ml PDGF). OPCs were plated in basal differentiation media (Neurobasal medium, B27 supplement without Vitamin A, non-essential amino acids, L-Glutamine, 2 ng/ml PDGF), treated with DMSO (<0.1%) or thyroid hormone (1 uM), fixed after 6 days in culture, and stained using antibodies for CNP, O4, or MBP. […]
# FIG. 12A-B. Primary hit confirmation. […] (EC50) is defined as the concentration that results in a half maximal increase in the percentage of total cells that express MBP as detected by immunostaining. […]
structure (smiles),measurement,value
CN1[C@@H]2CC[C@H]1C[C@@H](OC(c1ccccc1)c1ccccc1)C2 [benztropine],EC50,~350 nM

# Source: patent US11246873B2, “Directed differentiation of oligodendrocyte precursor cells to a myelinating cell fate” (The Scripps Research Institute, priority 2011, dated 2022)
